# Reference: PMC8384837
# Where a chain is given by its changes, count along the chain named. This is one part of the list. For some of these results: At the low end of the ranking the order means little. For some of these results: The exact form of the protein is not confirmed.
# Key:
# Details in all cases: yeast three-hybrid, YBZ-1, SC-Leu-His + 0.5 mM 3-AT, 4 days
# [1] = molecular target: T1, PUM1 PUF domain R3-THE R4-TFR R7-NPG C935T + R936H + Q939E + N971T + H972F + Q975R + S1079N + N1080P + E1083G (UniProt Q14671)
# T1 sequence: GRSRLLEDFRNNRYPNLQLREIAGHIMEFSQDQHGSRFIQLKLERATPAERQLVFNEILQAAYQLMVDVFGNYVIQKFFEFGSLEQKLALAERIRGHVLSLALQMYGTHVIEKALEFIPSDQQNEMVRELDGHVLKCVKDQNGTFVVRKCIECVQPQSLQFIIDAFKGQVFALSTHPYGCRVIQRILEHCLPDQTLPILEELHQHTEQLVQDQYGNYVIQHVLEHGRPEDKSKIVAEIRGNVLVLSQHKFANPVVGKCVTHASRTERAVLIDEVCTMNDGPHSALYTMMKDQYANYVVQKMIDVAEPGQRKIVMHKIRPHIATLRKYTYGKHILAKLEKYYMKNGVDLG
# [2] = molecular target: T2, PUM1 PUF domain R3-THE R4-TFR R7-NPG C935T + R936H + Q939E + N971T + H972F + Q975R + S1079N + N1080P + E1083G (Homo sapiens) (UniProt Q14671)
# T2 sequence: T1 sequence
# [3] = molecular target: T3, PUM1 PUF domain R5-PHQ R6-SWD C1007P + R1008H + N1043S + Y1044W + Q1047D (UniProt Q14671)
# T3 sequence: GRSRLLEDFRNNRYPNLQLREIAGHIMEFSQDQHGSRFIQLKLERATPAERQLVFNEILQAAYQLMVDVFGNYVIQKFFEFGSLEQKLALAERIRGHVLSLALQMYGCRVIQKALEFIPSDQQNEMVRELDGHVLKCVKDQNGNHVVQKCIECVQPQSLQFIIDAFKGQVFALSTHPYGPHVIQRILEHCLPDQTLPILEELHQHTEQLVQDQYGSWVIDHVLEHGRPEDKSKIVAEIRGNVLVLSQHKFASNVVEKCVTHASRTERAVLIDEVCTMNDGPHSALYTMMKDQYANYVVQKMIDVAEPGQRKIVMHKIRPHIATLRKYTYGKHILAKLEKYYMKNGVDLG
# [4] = molecular target: T4, PUM1 PUF domain R6-SWD R7-NPG N1043S + Y1044W + Q1047D + S1079N + N1080P + E1083G (Homo sapiens) (UniProt Q14671)
# T4 sequence: T3 sequence with P180C, H181R, S252N, N253P, E256G
# [5] = molecular target: T5, PUM1 PUF domain R8-GWR N1122G + Y1123W + Q1126R (UniProt Q14671)
# T5 sequence: T3 sequence with P180C, H181R, S216N, W217Y, D220Q, N295G, Y296W, Q299R
sequence,measurement,setting,value
GGCUAGAACUAGUGGAUCCCCCGGCGCCCGGCGGCUCGAGCCCGGGUAAGGUGUUAAAGUCUGCAUGCCGCCGGGCGCCAUGCCUGCAGGUCGACUCUAGAAAACAUG,binding signal (log2 enrichment (interaction score)),[1],-3.26
GGCUAGAACUAGUGGAUCCCCCGGCGCCCGGCGGCUCGAGCCCGGGUAAGGGGAACUUGUCUGCAUGCCGCCGGGCGCCAUGCCUGCAGGUCGACUCUAGAAAACAUG,binding signal (log2 enrichment (interaction score)),[2],< -1.8
same,binding signal (log2 enrichment (interaction score)),[3],< -6.79
same,binding signal (log2 enrichment (interaction score)),[4],-1.35
GGCUAGAACUAGUGGAUCCCCCGGCGCCCGGCGGCUCGAGCCCGGGUAAGUCUCAAAAGUCUGCAUGCCGCCGGGCGCCAUGCCUGCAGGUCGACUCUAGAAAACAUG,binding signal (log2 enrichment (interaction score)),[2],< -1.97
same,binding signal (log2 enrichment (interaction score)),[3],-7.05
GGCUAGAACUAGUGGAUCCCCCGGCGCCCGGCGGCUCGAGCCCGGGUAAGUUGUCGUCGUCUGCAUGCCGCCGGGCGCCAUGCCUGCAGGUCGACUCUAGAAAACAUG,binding signal (log2 enrichment (interaction score)),[2],< -0.92
same,binding signal (log2 enrichment (interaction score)),[4],-0.59
GGCUAGAACUAGUGGAUCCCCCGGCGCCCGGCGGCUCGAGCCCGGGUAAGUUAAUCUCGUCUGCAUGCCGCCGGGCGCCAUGCCUGCAGGUCGACUCUAGAAAACAUG,binding signal (log2 enrichment (interaction score)),[2],< -0.76
same,binding signal (log2 enrichment (interaction score)),[4],-1.33
GGCUAGAACUAGUGGAUCCCCCGGCGCCCGGCGGCUCGAGCCCGGGUAAGAUCUAAUCGUCUGCAUGCCGCCGGGCGCCAUGCCUGCAGGUCGACUCUAGAAAACAUG,binding signal (log2 enrichment (interaction score)),[2],-1.55
same,binding signal (log2 enrichment (interaction score)),[3],< -8.82
GGCUAGAACUAGUGGAUCCCCCGGCGCCCGGCGGCUCGAGCCCGGGUAAGUUGACAACGUCUGCAUGCCGCCGGGCGCCAUGCCUGCAGGUCGACUCUAGAAAACAUG,binding signal (log2 enrichment (interaction score)),[1],-2.35
GGCUAGAACUAGUGGAUCCCCCGGCGCCCGGCGGCUCGAGCCCGGGUAAGUUUCAAAAGUCUGCAUGCCGCCGGGCGCCAUGCCUGCAGGUCGACUCUAGAAAACAUG,binding signal (log2 enrichment (interaction score)),[1],-2.01
same,binding signal (log2 enrichment (interaction score)),[3],-7.8
GGCUAGAACUAGUGGAUCCCCCGGCGCCCGGCGGCUCGAGCCCGGGUAAGUUUUACCCGUCUGCAUGCCGCCGGGCGCCAUGCCUGCAGGUCGACUCUAGAAAACAUG,binding signal (log2 enrichment (interaction score)),[1],< -2
GGCUAGAACUAGUGGAUCCCCCGGCGCCCGGCGGCUCGAGCCCGGGUAAGUGGGCGUCGUCUGCAUGCCGCCGGGCGCCAUGCCUGCAGGUCGACUCUAGAAAACAUG,binding signal (log2 enrichment (interaction score)),[1],-2.38
same,binding signal (log2 enrichment (interaction score)),[3],-7.08
GGCUAGAACUAGUGGAUCCCCCGGCGCCCGGCGGCUCGAGCCCGGGUAAGUUUCGAUUGUCUGCAUGCCGCCGGGCGCCAUGCCUGCAGGUCGACUCUAGAAAACAUG,binding signal (log2 enrichment (interaction score)),[1],-2.7
GGCUAGAACUAGUGGAUCCCCCGGCGCCCGGCGGCUCGAGCCCGGGUAAGCUUUAAACGUCUGCAUGCCGCCGGGCGCCAUGCCUGCAGGUCGACUCUAGAAAACAUG,binding signal (log2 enrichment (interaction score)),[1],-2.01
GGCUAGAACUAGUGGAUCCCCCGGCGCCCGGCGGCUCGAGCCCGGGUAAGUAUGGCUCGUCUGCAUGCCGCCGGGCGCCAUGCCUGCAGGUCGACUCUAGAAAACAUG,binding signal (log2 enrichment (interaction score)),[1],-2.91
GGCUAGAACUAGUGGAUCCCCCGGCGCCCGGCGGCUCGAGCCCGGGUAAGAGGAAUACGUCUGCAUGCCGCCGGGCGCCAUGCCUGCAGGUCGACUCUAGAAAACAUG,binding signal (log2 enrichment (interaction score)),[1],-3.02
same,binding signal (log2 enrichment (interaction score)),[3],< -7.6
GGCUAGAACUAGUGGAUCCCCCGGCGCCCGGCGGCUCGAGCCCGGGUAAGCUUUAAUCGUCUGCAUGCCGCCGGGCGCCAUGCCUGCAGGUCGACUCUAGAAAACAUG,binding signal (log2 enrichment (interaction score)),[1],-2.3
GGCUAGAACUAGUGGAUCCCCCGGCGCCCGGCGGCUCGAGCCCGGGUAAGUUGUAGAAGUCUGCAUGCCGCCGGGCGCCAUGCCUGCAGGUCGACUCUAGAAAACAUG,binding signal (log2 enrichment (interaction score)),[1],-2.19
same,binding signal (log2 enrichment (interaction score)),[3],< -7.92
GGCUAGAACUAGUGGAUCCCCCGGCGCCCGGCGGCUCGAGCCCGGGUAAGUUCAAGAUGUCUGCAUGCCGCCGGGCGCCAUGCCUGCAGGUCGACUCUAGAAAACAUG,binding signal (log2 enrichment (interaction score)),[1],-2.61
GGCUAGAACUAGUGGAUCCCCCGGCGCCCGGCGGCUCGAGCCCGGGUAAGGGGAAGAAGUCUGCAUGCCGCCGGGCGCCAUGCCUGCAGGUCGACUCUAGAAAACAUG,binding signal (log2 enrichment (interaction score)),[1],-2.29
same,binding signal (log2 enrichment (interaction score)),[3],-7.31
same,binding signal (log2 enrichment (interaction score)),[4],-0.79
GGCUAGAACUAGUGGAUCCCCCGGCGCCCGGCGGCUCGAGCCCGGGUAAGAAUUGGACGUCUGCAUGCCGCCGGGCGCCAUGCCUGCAGGUCGACUCUAGAAAACAUG,binding signal (log2 enrichment (interaction score)),[1],-2.27
same,binding signal (log2 enrichment (interaction score)),[4],-1.54
GGCUAGAACUAGUGGAUCCCCCGGCGCCCGGCGGCUCGAGCCCGGGUAAGAUGAAGCCGUCUGCAUGCCGCCGGGCGCCAUGCCUGCAGGUCGACUCUAGAAAACAUG,binding signal (log2 enrichment (interaction score)),[1],-2.88
same,binding signal (log2 enrichment (interaction score)),[3],< -7.42
same,binding signal (log2 enrichment (interaction score)),[4],-1.89
GGCUAGAACUAGUGGAUCCCCCGGCGCCCGGCGGCUCGAGCCCGGGUAAGGGGUCGUAGUCUGCAUGCCGCCGGGCGCCAUGCCUGCAGGUCGACUCUAGAAAACAUG,binding signal (log2 enrichment (interaction score)),[1],-2.15
same,binding signal (log2 enrichment (interaction score)),[3],< -8.13
GGCUAGAACUAGUGGAUCCCCCGGCGCCCGGCGGCUCGAGCCCGGGUAAGUGAGCCUAGUCUGCAUGCCGCCGGGCGCCAUGCCUGCAGGUCGACUCUAGAAAACAUG,binding signal (log2 enrichment (interaction score)),[1],< -2.3
same,binding signal (log2 enrichment (interaction score)),[3],-6.19
GGCUAGAACUAGUGGAUCCCCCGGCGCCCGGCGGCUCGAGCCCGGGUAAGUUGUAUGGGUCUGCAUGCCGCCGGGCGCCAUGCCUGCAGGUCGACUCUAGAAAACAUG,binding signal (log2 enrichment (interaction score)),[2],-1.66
same,binding signal (log2 enrichment (interaction score)),[4],-1.07
GGCUAGAACUAGUGGAUCCCCCGGCGCCCGGCGGCUCGAGCCCGGGUAAGGGUAAAUAGUCUGCAUGCCGCCGGGCGCCAUGCCUGCAGGUCGACUCUAGAAAACAUG,binding signal (log2 enrichment (interaction score)),[2],< -1
same,binding signal (log2 enrichment (interaction score)),[3],< -7.8
same,binding signal (log2 enrichment (interaction score)),[5],< -6.1
GGCUAGAACUAGUGGAUCCCCCGGCGCCCGGCGGCUCGAGCCCGGGUAAGUUCAUCUCGUCUGCAUGCCGCCGGGCGCCAUGCCUGCAGGUCGACUCUAGAAAACAUG,binding signal (log2 enrichment (interaction score)),[1],-2.35
GGCUAGAACUAGUGGAUCCCCCGGCGCCCGGCGGCUCGAGCCCGGGUAAGCUGAAAGAGUCUGCAUGCCGCCGGGCGCCAUGCCUGCAGGUCGACUCUAGAAAACAUG,binding signal (log2 enrichment (interaction score)),[2],< -1.39
same,binding signal (log2 enrichment (interaction score)),[3],< -7.67
same,binding signal (log2 enrichment (interaction score)),[4],-1.79
GGCUAGAACUAGUGGAUCCCCCGGCGCCCGGCGGCUCGAGCCCGGGUAAGCUCAGAUGGUCUGCAUGCCGCCGGGCGCCAUGCCUGCAGGUCGACUCUAGAAAACAUG,binding signal (log2 enrichment (interaction score)),[2],-1.05
same,binding signal (log2 enrichment (interaction score)),[4],-1.37
GGCUAGAACUAGUGGAUCCCCCGGCGCCCGGCGGCUCGAGCCCGGGUAAGUAUACCUAGUCUGCAUGCCGCCGGGCGCCAUGCCUGCAGGUCGACUCUAGAAAACAUG,binding signal (log2 enrichment (interaction score)),[1],< -2.24
same,binding signal (log2 enrichment (interaction score)),[3],-7
GGCUAGAACUAGUGGAUCCCCCGGCGCCCGGCGGCUCGAGCCCGGGUAAGAGUAAACCGUCUGCAUGCCGCCGGGCGCCAUGCCUGCAGGUCGACUCUAGAAAACAUG,binding signal (log2 enrichment (interaction score)),[1],-2.29
same,binding signal (log2 enrichment (interaction score)),[3],-7.9
GGCUAGAACUAGUGGAUCCCCCGGCGCCCGGCGGCUCGAGCCCGGGUAAGUUUUAAUAGUCUGCAUGCCGCCGGGCGCCAUGCCUGCAGGUCGACUCUAGAAAACAUG,binding signal (log2 enrichment (interaction score)),[1],-2.52
same,binding signal (log2 enrichment (interaction score)),[3],-7.67
GGCUAGAACUAGUGGAUCCCCCGGCGCCCGGCGGCUCGAGCCCGGGUAAGUGUGCAAAGUCUGCAUGCCGCCGGGCGCCAUGCCUGCAGGUCGACUCUAGAAAACAUG,binding signal (log2 enrichment (interaction score)),[1],-2.01
same,binding signal (log2 enrichment (interaction score)),[3],-7.29

# 4 entries drawn at random from the list so far:
sequence,measurement,setting,value
GGCUAGAACUAGUGGAUCCCCCGGCGCCCGGCGGCUCGAGCCCGGGUAAGUUGUAGAAGUCUGCAUGCCGCCGGGCGCCAUGCCUGCAGGUCGACUCUAGAAAACAUG,binding signal (log2 enrichment (interaction score)),[3],< -7.92
GGCUAGAACUAGUGGAUCCCCCGGCGCCCGGCGGCUCGAGCCCGGGUAAGUUUCGAUUGUCUGCAUGCCGCCGGGCGCCAUGCCUGCAGGUCGACUCUAGAAAACAUG,binding signal (log2 enrichment (interaction score)),[1],-2.7
GGCUAGAACUAGUGGAUCCCCCGGCGCCCGGCGGCUCGAGCCCGGGUAAGGGUAAAUAGUCUGCAUGCCGCCGGGCGCCAUGCCUGCAGGUCGACUCUAGAAAACAUG,binding signal (log2 enrichment (interaction score)),[2],< -1
GGCUAGAACUAGUGGAUCCCCCGGCGCCCGGCGGCUCGAGCCCGGGUAAGUUGUAGAAGUCUGCAUGCCGCCGGGCGCCAUGCCUGCAGGUCGACUCUAGAAAACAUG,binding signal (log2 enrichment (interaction score)),[1],-2.19
